Source: patent US9333222B2, “Histone deacetylase inhibitors as therapeutic agents for Niemann-Pick type C disease” (University of Notre Dame du Lac, priority 2009, dated 2016)

System: NPC1 human fibroblast GM03123 cells
Assay: Filipin microscopy assay of free cholesterol in lysosomal storage organelles (LSO ratio)
Type: cell-based
Conditions: 48 h, read-out: EC50 for correcting the NPC1 phenotype

For `O=C(CCCCCCC(=O)Nc1ccccc1)NO` [SAHA, vorinostat], the EC50 was about 1 µM.
